Results are given in words; binding and its absence hold for the method and conditions named. Some binding calls cover weakened binding; strength is not graded here.
Target: FBXW8 (human) (UniProt Q8N3Y1)
Test: cryo-EM structure; CRL7^FBXW8 co-expressed in HEK293S and purified as a complex; 50 mM Tris pH 7.5, 150 mM NaCl, 5 mM DTT; about 1.7 mg/ml; Titan Krios 300 kV; both purified

By UniProt entry, the sequences of proteins in these tests, tags left out.
UniProt Q8N3Y1: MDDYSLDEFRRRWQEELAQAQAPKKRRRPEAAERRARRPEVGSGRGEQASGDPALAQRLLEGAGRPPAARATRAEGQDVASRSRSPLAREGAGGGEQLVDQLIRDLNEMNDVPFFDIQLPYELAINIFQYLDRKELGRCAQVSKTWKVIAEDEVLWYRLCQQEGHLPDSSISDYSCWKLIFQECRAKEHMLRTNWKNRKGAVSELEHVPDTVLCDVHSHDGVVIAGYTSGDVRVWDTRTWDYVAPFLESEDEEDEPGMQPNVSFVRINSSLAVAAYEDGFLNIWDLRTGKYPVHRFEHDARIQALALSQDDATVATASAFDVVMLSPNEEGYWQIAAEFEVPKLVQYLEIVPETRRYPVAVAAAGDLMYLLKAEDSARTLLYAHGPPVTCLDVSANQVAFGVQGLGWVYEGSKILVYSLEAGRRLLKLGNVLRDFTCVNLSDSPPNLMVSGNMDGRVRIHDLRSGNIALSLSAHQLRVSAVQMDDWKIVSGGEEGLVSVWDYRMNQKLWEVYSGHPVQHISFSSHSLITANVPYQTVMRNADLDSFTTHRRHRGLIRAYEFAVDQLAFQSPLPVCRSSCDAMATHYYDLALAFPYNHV
UniProt P63208: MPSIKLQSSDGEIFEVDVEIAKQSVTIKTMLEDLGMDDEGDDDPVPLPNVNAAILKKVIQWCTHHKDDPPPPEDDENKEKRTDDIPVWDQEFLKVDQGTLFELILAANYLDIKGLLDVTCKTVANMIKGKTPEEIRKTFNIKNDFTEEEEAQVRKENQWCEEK

In the case of SKP1 (from UniProt P63208 1-163), the binding is reported as “binds”.

Source: article PMC9507964
